Consider 1 substance from doi:10.1101/2024.04.11.588828.

The chains behind the UniProt entries cited, without tags or fusion partners.
UniProt P08247: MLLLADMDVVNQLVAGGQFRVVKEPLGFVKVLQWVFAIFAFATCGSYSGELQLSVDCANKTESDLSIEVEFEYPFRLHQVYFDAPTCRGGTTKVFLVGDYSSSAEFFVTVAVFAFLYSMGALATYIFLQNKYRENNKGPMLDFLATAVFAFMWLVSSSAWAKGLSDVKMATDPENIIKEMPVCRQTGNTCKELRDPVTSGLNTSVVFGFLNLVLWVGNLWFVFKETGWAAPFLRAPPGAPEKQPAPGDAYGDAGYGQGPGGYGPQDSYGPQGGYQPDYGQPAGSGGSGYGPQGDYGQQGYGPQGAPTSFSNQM
UniProt P63027: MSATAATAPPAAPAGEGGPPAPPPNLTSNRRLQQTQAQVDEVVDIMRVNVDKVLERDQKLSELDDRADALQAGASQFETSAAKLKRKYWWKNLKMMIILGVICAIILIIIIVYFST

The target in the experiment is human synaptophysin (Syp), LuTHy fusion (human) (UniProt P08247). In words: FRET or BRET. For orientation: In BRET a luciferase serves as donor, and the signal depends on an acceptor being close.

No constants are given. Whether binding was seen depends on the method and setting. Binding seen in cells or lysates may run through a third protein. Some entries that bind do so weakly or less than the wild type.

As for “human VAMP2 (synaptobrevin), LuTHy fusion (from UniProt P63027 1-116)”, the binding result is listed as “binds”.
